Test results from patent publication US10501562B2, “Co-initiator and co-monomer for use in preparing polymer related compositions, methods of manufacture, and methods of use” (University of Kansas, priority 2015, dated 2019).

Test: Cumulative amine co-initiator (and photoinitiator component) release from dentin adhesives in ethanol, HPLC
Format: physicochemical
Conditions: for release of CQ and DPIHP: HPLC, ethanol; for co-initiator released from 1 gram polymer samples: 60 days in ethanol, co-initiator 0.5 wt. %, released mass divided by polymer mass; for release of co-initiator from the polymer: in ethanol, based on the HPLC results; for release rate of co-initiator (time of release): polymers aged in ethanol

SMILES | release of CQ and DPIHP | co-initiator released from 1 gram polymer samples | release of co-initiator from the polymer | release rate of co-initiator (time of release) | cumulative amine co-initiator release (after 60 days in ethanol at 25 C, co-initiator at 0.5 wt. %) | cumulative amine co-initiator release (in ethanol at 25 C, co-initiator at 1.75 wt. %)
CC12CCC(C(=O)C1=O)C2(C)C (centres unmarked) [CQ, camphorquinone] | could not be detected |  |  |  |  | 
C=C(C)C(=O)OCCN(C)C [DMAEMA, 2-(dimethylamino) ethyl methacrylate] |  | 0.56 ± 0.15 mg | 11.2% | ~20 days |  | 
F[P-](F)(F)(F)(F)F.c1ccc([I+]c2ccccc2)cc1 [DPIHP, diphenyliodonium hexafluorophosphate] | could not be detected |  |  |  |  | 
CCOC(=O)c1ccc(N(C)C)cc1 [EDMAB, Ethyl-4-(dimethylamino) benzoate] |  | 2.68 ± 0.21 mg | 53.6% | ~40 days |  | 
C=C(C)C(=O)OCCNC(=O)OC(C)CN(CC(C)OC(=O)NCCOC(=O)C(=C)C)CC(C)OC(=O)NCCOC(=O)C(=C)C (centres unmarked) [TUMA, 8-(2-(((2-(methacryloyloxy)ethyl)carbamoyl)oxy)propyl)-6,10-dimethyl-4,12-dioxo-5,11-dioxa-3,8,13-triazapentadecane-1,15-diyl bis(2-methylacrylate)] |  |  | no TUMA release or it was below the detectable limit |  | no TUMA was detected | no TUMA was detected
